Test results: PMC5730604 (2017)

What was measured:
[1] = general procedure: Fmoc solid-phase peptide synthesis; Wang resin; HBTU (DIC/DMAP for first amino acid; HATU for PEG27 linker); settings: whole synthesis, based on the synthesis scale of 0.2 mmol, scale 0.2 mmol
[2] = general procedure: Fmoc solid-phase peptide synthesis; Wang resin (100–200 mesh, 0.9 mmol/g); HBTU (DIC/DMAP for first amino acid; HATU for PEG27 linker); settings: whole synthesis

In the case of “PEPTIDE1{[For].M.I.F.L.G.G.K.K}|PEPTIDE2{[dC].[dD].G.[Tyr3NO2].G.[Hyp].N.[dC].[PEG27]}|PEPTIDE3{[dC].[dD].G.[Tyr3NO2].G.[Hyp].N.[dC].[PEG27]}$PEPTIDE1,PEPTIDE2,8:R3-9:R2|PEPTIDE1,PEPTIDE3,9:R3-9:R2|PEPTIDE2,PEPTIDE2,1:R3-8:R3|PEPTIDE3,PEPTIDE3,1:R3-8:R3$$$V2.0”, the isolated yield [1] is reported as 20%, the “final purity (method not given)” value ([2]; RP-HPLC, ESI-MS, scale of the general procedure 0.2 mmol) is reported as “more than 98%” and the isolated mass ([2]; scale 0.2 mmol) is reported as 207 mg.

HELM strings list residues between dots; [ac] is acetyl, [am] amide, other brackets name non-standard units.
